Results published in patent US20240279321A1 (THERINI BIO, published 2024).
Where a chain is given by its changes, count along the chain named. These are yes or no findings as the source states them, for the method shown. A result given as binding can be weak or reduced; the word gives no strength. Where no end group is shown, it is not given here. The star is where a group is joined. Biotin = O=C1N[C@H]2[C@H](CS[C@H]2CCCCC(=O)*)N1

Legend:
FGG [1] = assay: ELISA (FGG ELISA), RFU readout
Fibrin [2] = assay: ELISA
Fibrin [3] = assay: ELISA (Fibrin ELISA), RFU readout
FGG [4] = assay: ELISA (FGG ELISA), RFU readout; B and C are duplicates of clone 61278
Fibrin [5] = assay: ELISA (Fibrin ELISA), RFU readout; B and C are duplicates of clone 61278

Measured: binding

B1: antibody clone 60143 (full length ADI-60143 IgG) (antibody, V domains shown)
VH: QVQLVQSGAEVKKPGASVKVSCKASGYTFTSTWIHWVRQAPGQGLEWIGLIDPSDSYTNYNQKFRGRATLTVDTSTSTAYMELSSLRSEDTAVYYCASSKPTGGWGQGTTVTVSS
VL: DIVMTQSPLSLPVTPGEPASISCRSSKSLLHSSGITYLSWYLQKPGQSPQLLIYQMSNLASGVPDRFSGSGSGTDFTLKISRVEAEDVGVYYCAQNLELPLTFGGGTKVEIKR
binds: FGG [1] | Fibrin [2] | Fibrin [3]

B2: antibody clone 61278 (ADI-61278 IgG) (antibody, V domains shown)
VH: B1 VH with T32Y, I48M, A68V, L70M, K100D, P101A
VL: B1 VL with N96A
binds: FGG [4] | Fibrin [5] | Fibrin [2]
